{"source": "patent US12508262B2", "about": "“Methods of using ALK2 inhibitors” (Keros Therapeutics, Inc., priority 2020, dated 2025)", "test": "Phase 1 single- and multiple-ascending dose study, PK parameters", "assay_type": "in vivo, human", "conditions": "post dose", "text": "The primary objectives of this study were to a) evaluate safety and tolerability of escalating doses of the compound of Formula I-11 administered as single and multiple oral doses in healthy male volunteers and healthy postmenopausal female volunteers and b) evaluate the PK parameters following escalating doses of the compound of Formula I-11 administered as single and multiple oral doses. The secondary objective of this study was to evaluate the pharmacodynamic (PD) parameters following escalating doses of the compound of Formula I-11 administered as single and multiple oral doses. This study was conducted in two parts.\nParticipants in Part 1 received a single oral dose of the compound of Formula I-11 or placebo on Day 1 and serial PK samples were collected. Baseline assessments were performed on day −1 prior to dosing. Samples were collected for determination of pharmacodynamic parameters at pre-dose daily and up to 24 hours post dose (day 2) after a single oral dose of the compound of Formula I-11. […] Safety was evaluated by a Safety Review Committee prior to escalation to the next dose level cohort.\nParticipants in Part 2, Cohorts 1 through 3, received a daily oral dose of the compound of Formula I-11 (50, 100, or 200 mg liquid formulation respectively) or placebo for 7 days. […] Safety was evaluated by a Safety Review Committee prior to escalation to the next dose level cohort. […]", "note": "The name of at least one read-out is uncertain."}
{"smiles": "COc1cc2c(-c3cnn4cc(N5CCC(N6CCN(C)CC6)CC5)cnc34)ccnc2cc1F", "note": "[Formula I-11]", "values": [{"measurement": "time of observed Cmax", "value": 6, "unit": "h"}]}
